Source: patent US8101777B2, “Ionic liquids based on imidazolium salts incorporating a nitrile functionality” (Ecole Polytechnique Federale de Lausanne, priority 2003, dated 2012)

Assays:
[1] = Hydrogenation of 1,3-cyclohexadiene by PdCl2 in ionic liquid under biphasic conditions; conditions: for Palladium residues in the organic phase / product: inductively coupled plasma (ICP) analysis
[2] = PdCl2 dissolved in the ionic liquid, biphasic

| Compound | Overall conversion of 1,3-cyclohexadiene [1, 2] [%] | Selectivity to cyclohexene [1, 2] [%] | Turnover frequency [1, 2] [molmol^−1h^−1] | Cyclohexene yield ([1]; PdCl2 ~5 mg in 1 ml ionic liquid, H2 45 atm, 100° C., 4 h) [%] | Palladium residues in the organic phase / product [1] | Palladium residues in the organic phase / product ([1]; listed as 3c) | Biphenyl yield on repeated runs of catalysis (after six runs of catalysis) | Biphenyl yield (palladium complex 0.03 mmol, 110° C., 12 hours, first run) [%] |
| --- | --- | --- | --- | --- | --- | --- | --- | --- |
| [1-propylnitrile-3-methylimidazolium]BF4 [[C3CNmim][BF4]] | 90 | 97 | 247 | 90 | No palladium residues in the organic phase are detected | no palladium is detected | above 90% |  |
| CCCC[n+]1ccn(C)c1.F[B-](F)(F)F [[C4mim][BF4], 1-methyl-3-butylimidazolium tetrafluoroborate, reference compound] |  |  |  |  |  |  |  | 100 |
